# Experimental data taken from PMC8384837.
# Positions count from the first letter of the chain named. This is one part of the list. For some assays here: At the low end of the ranking, values are background and their order means little. For some assays here: The exact form of the protein is not confirmed.
# What was measured:
# Conditions in all cases: yeast three-hybrid, YBZ-1, SC-Leu-His + 0.5 mM 3-AT, 4 days
# [1] = target: T1, PUM1 PUF domain R2-VFQ R3-THE R4-TFR N899V + Y900F + C935T + R936H + Q939E + N971T + H972F + Q975R (UniProt Q14671)
# T1 sequence: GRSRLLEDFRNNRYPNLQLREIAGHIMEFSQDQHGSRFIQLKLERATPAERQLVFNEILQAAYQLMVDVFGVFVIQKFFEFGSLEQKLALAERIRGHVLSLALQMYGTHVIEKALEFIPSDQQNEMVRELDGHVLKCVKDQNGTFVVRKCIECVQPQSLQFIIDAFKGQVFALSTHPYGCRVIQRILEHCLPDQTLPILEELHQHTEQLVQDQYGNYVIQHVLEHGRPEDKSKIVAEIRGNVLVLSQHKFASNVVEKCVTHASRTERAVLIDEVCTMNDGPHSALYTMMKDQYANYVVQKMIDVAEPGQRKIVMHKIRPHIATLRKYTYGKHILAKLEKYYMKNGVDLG
# [2] = target: T2, PUM1 PUF domain R3-THE R4-TFR R7-NPG C935T + R936H + Q939E + N971T + H972F + Q975R + S1079N + N1080P + E1083G (UniProt Q14671)
# T2 sequence: T1 sequence with V72N, F73Y, S252N, N253P, E256G
# [3] = target: T3, PUM1 PUF domain R5-PHQ R6-SWD C1007P + R1008H + N1043S + Y1044W + Q1047D (UniProt Q14671)
# T3 sequence: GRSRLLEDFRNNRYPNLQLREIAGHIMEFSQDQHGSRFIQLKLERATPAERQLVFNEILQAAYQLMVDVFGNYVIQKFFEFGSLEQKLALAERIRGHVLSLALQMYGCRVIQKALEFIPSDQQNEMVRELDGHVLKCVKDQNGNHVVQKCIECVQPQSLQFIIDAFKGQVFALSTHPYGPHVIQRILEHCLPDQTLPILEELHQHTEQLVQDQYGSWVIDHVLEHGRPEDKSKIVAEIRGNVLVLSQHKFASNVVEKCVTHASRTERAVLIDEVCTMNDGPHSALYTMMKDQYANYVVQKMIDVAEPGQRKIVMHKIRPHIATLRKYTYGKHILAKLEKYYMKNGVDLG
# [4] = target: T4, PUM1 PUF domain R3-THE R4-TFR R7-NPG C935T + R936H + Q939E + N971T + H972F + Q975R + S1079N + N1080P + E1083G (Homo sapiens) (UniProt Q14671)
# T4 sequence: T1 sequence with V72N, F73Y, S252N, N253P, E256G
# [5] = target: T5, PUM1 PUF domain R6-SWD R7-NPG N1043S + Y1044W + Q1047D + S1079N + N1080P + E1083G (Homo sapiens) (UniProt Q14671)
# T5 sequence: T3 sequence with P180C, H181R, S252N, N253P, E256G
# [6] = target: T6, PUM1 PUF domain R6-SWD R7-NPG N1043S + Y1044W + Q1047D + S1079N + N1080P + E1083G (UniProt Q14671)
# T6 sequence: T3 sequence with P180C, H181R, S252N, N253P, E256G
# [7] = target: T7, PUM1 PUF domain R3-THE R4-TFR C935T + R936H + Q939E + N971T + H972F + Q975R (UniProt Q14671)
# T7 sequence: T1 sequence with V72N, F73Y
sequence,measurement,setting,value
GGCUAGAACUAGUGGAUCCCCCGGCGCCCGGCGGCUCGAGCCCGGGUAAGUUUGAAUCGUCUGCAUGCCGCCGGGCGCCAUGCCUGCAGGUCGACUCUAGAAAACAUG,binding signal (log2 enrichment (interaction score)),[1],-6.01
same,binding signal (log2 enrichment (interaction score)),[2],-3.18
same,binding signal (log2 enrichment (interaction score)),[3],-6.56
GGCUAGAACUAGUGGAUCCCCCGGCGCCCGGCGGCUCGAGCCCGGGUAAGUUGCAUGAGUCUGCAUGCCGCCGGGCGCCAUGCCUGCAGGUCGACUCUAGAAAACAUG,binding signal (log2 enrichment (interaction score)),[1],-5.68
same,binding signal (log2 enrichment (interaction score)),[4],-1.6
GGCUAGAACUAGUGGAUCCCCCGGCGCCCGGCGGCUCGAGCCCGGGUAAGUUCCCGAGGUCUGCAUGCCGCCGGGCGCCAUGCCUGCAGGUCGACUCUAGAAAACAUG,binding signal (log2 enrichment (interaction score)),[1],-4.85
same,binding signal (log2 enrichment (interaction score)),[4],-1.41
GGCUAGAACUAGUGGAUCCCCCGGCGCCCGGCGGCUCGAGCCCGGGUAAGGUGAUGUAGUCUGCAUGCCGCCGGGCGCCAUGCCUGCAGGUCGACUCUAGAAAACAUG,binding signal (log2 enrichment (interaction score)),[1],-5.4
same,binding signal (log2 enrichment (interaction score)),[2],-2.06
same,binding signal (log2 enrichment (interaction score)),[5],-0.29
GGCUAGAACUAGUGGAUCCCCCGGCGCCCGGCGGCUCGAGCCCGGGUAAGUCGAAAACGUCUGCAUGCCGCCGGGCGCCAUGCCUGCAGGUCGACUCUAGAAAACAUG,binding signal (log2 enrichment (interaction score)),[1],-5.06
same,binding signal (log2 enrichment (interaction score)),[4],-0.99
same,binding signal (log2 enrichment (interaction score)),[3],< -8.3
same,binding signal (log2 enrichment (interaction score)),[5],-0.94
GGCUAGAACUAGUGGAUCCCCCGGCGCCCGGCGGCUCGAGCCCGGGUAAGUGGACAACGUCUGCAUGCCGCCGGGCGCCAUGCCUGCAGGUCGACUCUAGAAAACAUG,binding signal (log2 enrichment (interaction score)),[1],-4.24
same,binding signal (log2 enrichment (interaction score)),[3],-6.83
GGCUAGAACUAGUGGAUCCCCCGGCGCCCGGCGGCUCGAGCCCGGGUAAGCUCAGACAGUCUGCAUGCCGCCGGGCGCCAUGCCUGCAGGUCGACUCUAGAAAACAUG,binding signal (log2 enrichment (interaction score)),[1],-5.68
same,binding signal (log2 enrichment (interaction score)),[5],-1.65
GGCUAGAACUAGUGGAUCCCCCGGCGCCCGGCGGCUCGAGCCCGGGUAAGUGGCAUACGUCUGCAUGCCGCCGGGCGCCAUGCCUGCAGGUCGACUCUAGAAAACAUG,binding signal (log2 enrichment (interaction score)),[1],-5.44
same,binding signal (log2 enrichment (interaction score)),[3],< -7.8
GGCUAGAACUAGUGGAUCCCCCGGCGCCCGGCGGCUCGAGCCCGGGUAAGAUCAAAUAGUCUGCAUGCCGCCGGGCGCCAUGCCUGCAGGUCGACUCUAGAAAACAUG,binding signal (log2 enrichment (interaction score)),[1],-4.42
same,binding signal (log2 enrichment (interaction score)),[3],-8.29
GGCUAGAACUAGUGGAUCCCCCGGCGCCCGGCGGCUCGAGCCCGGGUAAGUACAACUCGUCUGCAUGCCGCCGGGCGCCAUGCCUGCAGGUCGACUCUAGAAAACAUG,binding signal (log2 enrichment (interaction score)),[1],-3.37
same,binding signal (log2 enrichment (interaction score)),[3],-6.63
GGCUAGAACUAGUGGAUCCCCCGGCGCCCGGCGGCUCGAGCCCGGGUAAGUUCGUGAAGUCUGCAUGCCGCCGGGCGCCAUGCCUGCAGGUCGACUCUAGAAAACAUG,binding signal (log2 enrichment (interaction score)),[1],-5.19
same,binding signal (log2 enrichment (interaction score)),[5],-1.04
GGCUAGAACUAGUGGAUCCCCCGGCGCCCGGCGGCUCGAGCCCGGGUAAGUUGGAACAGUCUGCAUGCCGCCGGGCGCCAUGCCUGCAGGUCGACUCUAGAAAACAUG,binding signal (log2 enrichment (interaction score)),[1],-6.71
same,binding signal (log2 enrichment (interaction score)),[3],< -7.97
GGCUAGAACUAGUGGAUCCCCCGGCGCCCGGCGGCUCGAGCCCGGGUAAGUGGGAGGCGUCUGCAUGCCGCCGGGCGCCAUGCCUGCAGGUCGACUCUAGAAAACAUG,binding signal (log2 enrichment (interaction score)),[1],-4.99
same,binding signal (log2 enrichment (interaction score)),[3],-7.44
same,binding signal (log2 enrichment (interaction score)),[5],-1.19
GGCUAGAACUAGUGGAUCCCCCGGCGCCCGGCGGCUCGAGCCCGGGUAAGUUUACAAAGUCUGCAUGCCGCCGGGCGCCAUGCCUGCAGGUCGACUCUAGAAAACAUG,binding signal (log2 enrichment (interaction score)),[1],< -5.76
same,binding signal (log2 enrichment (interaction score)),[5],-0.65
GGCUAGAACUAGUGGAUCCCCCGGCGCCCGGCGGCUCGAGCCCGGGUAAGAAUAAAGAGUCUGCAUGCCGCCGGGCGCCAUGCCUGCAGGUCGACUCUAGAAAACAUG,binding signal (log2 enrichment (interaction score)),[1],-5.56
same,binding signal (log2 enrichment (interaction score)),[3],< -7.57
same,binding signal (log2 enrichment (interaction score)),[6],-2.22
GGCUAGAACUAGUGGAUCCCCCGGCGCCCGGCGGCUCGAGCCCGGGUAAGGUUACAACGUCUGCAUGCCGCCGGGCGCCAUGCCUGCAGGUCGACUCUAGAAAACAUG,binding signal (log2 enrichment (interaction score)),[7],-7.21
GGCUAGAACUAGUGGAUCCCCCGGCGCCCGGCGGCUCGAGCCCGGGUAAGUGGUUACUGUCUGCAUGCCGCCGGGCGCCAUGCCUGCAGGUCGACUCUAGAAAACAUG,binding signal (log2 enrichment (interaction score)),[1],-5.32
same,binding signal (log2 enrichment (interaction score)),[3],< -7.16
GGCUAGAACUAGUGGAUCCCCCGGCGCCCGGCGGCUCGAGCCCGGGUAAGCGUACGUAGUCUGCAUGCCGCCGGGCGCCAUGCCUGCAGGUCGACUCUAGAAAACAUG,binding signal (log2 enrichment (interaction score)),[1],-5.23
same,binding signal (log2 enrichment (interaction score)),[3],< -6.94

# Already shown: entries from further up.
sequence,measurement,setting,value
GGCUAGAACUAGUGGAUCCCCCGGCGCCCGGCGGCUCGAGCCCGGGUAAGUGGACAACGUCUGCAUGCCGCCGGGCGCCAUGCCUGCAGGUCGACUCUAGAAAACAUG,binding signal (log2 enrichment (interaction score)),[1],-4.24
same,binding signal (log2 enrichment (interaction score)),[3],-6.83
GGCUAGAACUAGUGGAUCCCCCGGCGCCCGGCGGCUCGAGCCCGGGUAAGCUCAGACAGUCUGCAUGCCGCCGGGCGCCAUGCCUGCAGGUCGACUCUAGAAAACAUG,binding signal (log2 enrichment (interaction score)),[1],-5.68
